The results in this text go back to PMC4850634, “Characterization of an A-kinase anchoring protein-like suggests an alternative way of PKA anchoring in Plasmodium falciparum” (Malaria Journal, 2016).

Protein sequences, listed by entry. Tags and fused reporters are not part of them. Lines headed by an entry give the natural chain unless they say otherwise; changes in a name come on top.
UniProt Q8I3X8: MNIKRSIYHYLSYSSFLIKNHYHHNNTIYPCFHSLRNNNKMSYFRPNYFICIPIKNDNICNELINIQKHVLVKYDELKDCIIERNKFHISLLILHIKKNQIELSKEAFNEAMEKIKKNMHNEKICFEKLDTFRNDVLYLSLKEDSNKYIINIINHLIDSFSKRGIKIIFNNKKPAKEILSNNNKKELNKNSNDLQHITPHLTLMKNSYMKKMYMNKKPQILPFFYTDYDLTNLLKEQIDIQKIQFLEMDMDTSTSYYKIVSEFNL

These are yes or no findings as the source states them, for the method shown. Binding calls can cover weak binding; strength is not graded here. Sequences can lack the tags named with a protein.

The target of test [1] is GST-PfAKAL (P. falciparum A Kinase anchoring protein-like fused to GST) (Plasmodium falciparum) (UniProt Q8I3X8). The test is described as follows: pull-down; GST fusion protein (or GST) on glutathione beads incubated in a solution of purified (His)6-tagged recombinant protein; beads washed in RIPA buffer; SDS-PAGE and anti-polyhistidine western blot; GST-PfAKAL with (His)6-Pf14-3-3I also with or without 5 mM 3'-5'AMP; both purified.

Test [2] deals with GST-PfPKA-R (Plasmodium falciparum). The test is described as above.

B1: (His)6-Pf14-3-3I (natural protein, Plasmodium falciparum, UniProt C0H4V6 1-262, looked up)
chain: MATSEELKQLRCDCTYRSKLAEQAERYDEMADAMRTLVEQCVNNDKDELTVEERNLLSVAYKNAVGARRASWRIISSVEQKEMSKANVHNKNVAATYRKKVEEELNNICQDILNLLTKKLIPNTSESESKVFYYKMKGDYYRYISEFSCDEGKKEASNCAQEAYQKATDIAENELPSTHPIRLGLALNYSVFFYEILNQPHQACEMAKRAFDDAITEFDNVSEDSYKDSTLIMQLLRDNLTLWTSDLQGDQTEEKSKDEGLE
notes: 14-3-3I protein, Plasmodium falciparum, PlasmoDB MAL8P1.69/PF3D7_0818200; amplified from a P. falciparum cDNA library with primers from the start to the stop codon, cloned into pRSFDuet; recombinant protein 30 kDa; source: E. coli BL21 Codon Plus, purified (Ni-NTA-agarose)
B1: the binding result in test [1] and in test [2] was “binds” throughout.
